From the supplement of paper PMC6411743
± gives the standard deviation of the averaged measurements. This is one part of the list.

Sequences of proteins named here, by UniProt entry; tags and fusion partners are left off. A change or cut given only in a name is not applied to a line headed by its entry.
UniProt Q9UHV9, whole entry: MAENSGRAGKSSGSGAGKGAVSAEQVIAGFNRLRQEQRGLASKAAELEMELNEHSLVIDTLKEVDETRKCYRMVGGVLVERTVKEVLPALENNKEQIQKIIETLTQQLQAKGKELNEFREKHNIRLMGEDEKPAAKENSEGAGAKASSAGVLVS
UniProt Q9UJK0: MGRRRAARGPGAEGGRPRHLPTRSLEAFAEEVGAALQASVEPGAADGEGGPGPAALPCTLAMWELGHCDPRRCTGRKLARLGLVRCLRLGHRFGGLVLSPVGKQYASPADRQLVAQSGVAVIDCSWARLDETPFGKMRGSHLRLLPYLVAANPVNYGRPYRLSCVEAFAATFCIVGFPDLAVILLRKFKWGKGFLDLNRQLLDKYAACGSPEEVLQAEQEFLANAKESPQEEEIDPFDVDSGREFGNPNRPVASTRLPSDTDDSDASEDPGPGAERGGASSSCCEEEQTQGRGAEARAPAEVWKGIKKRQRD
UniProt Q9NWZ3, whole entry: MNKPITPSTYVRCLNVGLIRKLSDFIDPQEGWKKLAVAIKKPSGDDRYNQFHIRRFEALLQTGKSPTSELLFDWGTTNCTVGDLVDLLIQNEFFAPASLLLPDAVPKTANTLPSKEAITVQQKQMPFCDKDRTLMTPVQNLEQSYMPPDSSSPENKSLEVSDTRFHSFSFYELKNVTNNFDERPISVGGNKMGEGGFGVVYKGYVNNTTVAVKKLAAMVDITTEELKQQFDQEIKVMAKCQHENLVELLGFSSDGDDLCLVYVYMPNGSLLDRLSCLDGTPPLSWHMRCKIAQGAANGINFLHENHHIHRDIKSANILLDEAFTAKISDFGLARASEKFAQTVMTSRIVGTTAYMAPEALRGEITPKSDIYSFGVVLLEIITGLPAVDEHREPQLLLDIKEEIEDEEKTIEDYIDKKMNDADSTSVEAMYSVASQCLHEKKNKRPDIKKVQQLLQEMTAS
UniProt Q9UGU5: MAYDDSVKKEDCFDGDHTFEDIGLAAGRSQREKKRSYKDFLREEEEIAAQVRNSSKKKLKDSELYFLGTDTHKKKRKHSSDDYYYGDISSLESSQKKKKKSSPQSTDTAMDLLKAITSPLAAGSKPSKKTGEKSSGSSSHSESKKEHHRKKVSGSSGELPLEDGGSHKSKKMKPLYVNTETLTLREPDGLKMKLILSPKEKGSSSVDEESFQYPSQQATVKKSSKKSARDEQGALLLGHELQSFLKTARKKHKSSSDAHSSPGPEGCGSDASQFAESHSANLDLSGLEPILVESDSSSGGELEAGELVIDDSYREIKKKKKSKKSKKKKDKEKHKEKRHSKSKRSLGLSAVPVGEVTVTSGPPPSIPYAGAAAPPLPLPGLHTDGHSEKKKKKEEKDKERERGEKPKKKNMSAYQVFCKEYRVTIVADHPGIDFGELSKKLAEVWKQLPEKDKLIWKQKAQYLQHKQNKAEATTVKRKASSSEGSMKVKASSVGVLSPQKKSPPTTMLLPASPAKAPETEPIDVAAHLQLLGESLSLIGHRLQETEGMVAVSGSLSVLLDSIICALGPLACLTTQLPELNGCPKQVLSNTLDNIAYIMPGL
UniProt Q9NVN8: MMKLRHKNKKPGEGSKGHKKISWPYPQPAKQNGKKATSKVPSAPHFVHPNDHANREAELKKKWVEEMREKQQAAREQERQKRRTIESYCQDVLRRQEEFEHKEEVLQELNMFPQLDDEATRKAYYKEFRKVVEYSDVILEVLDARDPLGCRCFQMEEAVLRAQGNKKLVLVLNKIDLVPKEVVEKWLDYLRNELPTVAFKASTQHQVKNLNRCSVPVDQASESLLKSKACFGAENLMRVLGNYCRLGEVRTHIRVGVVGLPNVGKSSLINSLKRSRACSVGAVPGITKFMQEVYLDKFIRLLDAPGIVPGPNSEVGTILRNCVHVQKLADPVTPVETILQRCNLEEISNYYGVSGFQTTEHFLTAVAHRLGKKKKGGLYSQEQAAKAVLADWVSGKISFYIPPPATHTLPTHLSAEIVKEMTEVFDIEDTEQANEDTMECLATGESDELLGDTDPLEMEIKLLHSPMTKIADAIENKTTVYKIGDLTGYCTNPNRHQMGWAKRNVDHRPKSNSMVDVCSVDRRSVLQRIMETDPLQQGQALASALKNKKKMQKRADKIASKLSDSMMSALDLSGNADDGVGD
UniProt Q9NUP1: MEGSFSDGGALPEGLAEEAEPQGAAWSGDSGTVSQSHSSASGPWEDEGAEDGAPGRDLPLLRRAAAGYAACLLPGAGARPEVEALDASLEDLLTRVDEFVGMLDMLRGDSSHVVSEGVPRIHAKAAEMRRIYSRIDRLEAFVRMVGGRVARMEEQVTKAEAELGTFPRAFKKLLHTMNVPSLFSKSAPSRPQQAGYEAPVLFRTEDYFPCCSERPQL
UniProt Q9NYZ3: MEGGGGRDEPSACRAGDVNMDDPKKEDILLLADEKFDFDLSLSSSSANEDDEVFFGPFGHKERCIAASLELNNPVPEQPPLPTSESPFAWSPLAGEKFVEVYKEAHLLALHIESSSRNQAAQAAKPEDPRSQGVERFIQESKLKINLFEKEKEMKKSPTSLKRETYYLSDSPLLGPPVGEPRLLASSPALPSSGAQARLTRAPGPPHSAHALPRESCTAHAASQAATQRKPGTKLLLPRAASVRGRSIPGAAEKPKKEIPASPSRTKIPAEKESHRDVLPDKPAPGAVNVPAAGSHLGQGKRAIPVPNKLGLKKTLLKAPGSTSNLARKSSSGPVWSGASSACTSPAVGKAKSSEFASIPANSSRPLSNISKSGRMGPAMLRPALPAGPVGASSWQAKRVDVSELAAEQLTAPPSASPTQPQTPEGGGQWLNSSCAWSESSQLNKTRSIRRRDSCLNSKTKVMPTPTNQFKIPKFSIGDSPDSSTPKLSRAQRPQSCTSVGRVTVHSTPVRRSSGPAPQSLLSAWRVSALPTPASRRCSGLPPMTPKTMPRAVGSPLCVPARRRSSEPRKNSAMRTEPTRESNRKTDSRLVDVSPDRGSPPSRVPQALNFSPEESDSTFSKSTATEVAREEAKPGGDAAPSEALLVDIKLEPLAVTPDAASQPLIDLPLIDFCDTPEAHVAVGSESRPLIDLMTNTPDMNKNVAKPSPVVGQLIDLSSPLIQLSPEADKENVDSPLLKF
UniProt Q9NXX6: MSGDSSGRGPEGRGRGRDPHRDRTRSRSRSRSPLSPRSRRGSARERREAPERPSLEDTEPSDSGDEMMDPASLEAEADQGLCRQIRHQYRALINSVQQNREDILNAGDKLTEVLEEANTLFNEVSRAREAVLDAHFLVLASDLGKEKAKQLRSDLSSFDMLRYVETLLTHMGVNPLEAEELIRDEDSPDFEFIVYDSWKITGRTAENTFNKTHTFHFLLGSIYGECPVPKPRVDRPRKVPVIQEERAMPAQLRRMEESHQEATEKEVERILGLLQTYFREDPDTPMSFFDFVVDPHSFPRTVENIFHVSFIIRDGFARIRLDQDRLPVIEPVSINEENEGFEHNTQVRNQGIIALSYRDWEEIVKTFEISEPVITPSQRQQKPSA
UniProt Q9ULR0: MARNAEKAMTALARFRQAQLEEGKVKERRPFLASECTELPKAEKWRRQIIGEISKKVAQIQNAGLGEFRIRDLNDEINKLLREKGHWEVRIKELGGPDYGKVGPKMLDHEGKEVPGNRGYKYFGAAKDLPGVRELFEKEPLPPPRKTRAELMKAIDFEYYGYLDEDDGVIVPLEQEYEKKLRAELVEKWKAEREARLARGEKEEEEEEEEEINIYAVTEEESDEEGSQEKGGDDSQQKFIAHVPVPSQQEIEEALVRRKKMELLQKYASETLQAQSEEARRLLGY
UniProt Q9NXG2: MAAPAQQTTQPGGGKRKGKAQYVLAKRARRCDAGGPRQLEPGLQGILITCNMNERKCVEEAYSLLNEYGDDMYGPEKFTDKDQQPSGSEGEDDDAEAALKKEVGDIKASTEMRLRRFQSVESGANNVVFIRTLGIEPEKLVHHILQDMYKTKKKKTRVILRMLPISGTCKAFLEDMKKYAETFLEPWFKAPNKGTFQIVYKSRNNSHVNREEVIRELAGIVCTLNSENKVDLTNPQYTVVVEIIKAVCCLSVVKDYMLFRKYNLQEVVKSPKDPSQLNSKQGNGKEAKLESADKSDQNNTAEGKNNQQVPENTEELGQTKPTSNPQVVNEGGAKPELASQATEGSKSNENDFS
UniProt Q9UBB5, whole entry: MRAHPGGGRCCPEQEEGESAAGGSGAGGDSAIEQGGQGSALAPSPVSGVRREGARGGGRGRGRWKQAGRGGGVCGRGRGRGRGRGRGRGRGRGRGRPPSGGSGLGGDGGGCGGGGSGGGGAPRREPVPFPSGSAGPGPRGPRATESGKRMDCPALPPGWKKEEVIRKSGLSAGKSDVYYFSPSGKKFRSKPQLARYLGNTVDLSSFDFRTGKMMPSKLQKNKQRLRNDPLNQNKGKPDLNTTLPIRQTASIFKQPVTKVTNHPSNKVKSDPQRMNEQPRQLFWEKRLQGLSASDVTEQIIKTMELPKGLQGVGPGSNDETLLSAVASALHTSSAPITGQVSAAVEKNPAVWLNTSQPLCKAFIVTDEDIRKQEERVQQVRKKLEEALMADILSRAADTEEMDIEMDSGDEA
UniProt Q9NZ32, whole entry: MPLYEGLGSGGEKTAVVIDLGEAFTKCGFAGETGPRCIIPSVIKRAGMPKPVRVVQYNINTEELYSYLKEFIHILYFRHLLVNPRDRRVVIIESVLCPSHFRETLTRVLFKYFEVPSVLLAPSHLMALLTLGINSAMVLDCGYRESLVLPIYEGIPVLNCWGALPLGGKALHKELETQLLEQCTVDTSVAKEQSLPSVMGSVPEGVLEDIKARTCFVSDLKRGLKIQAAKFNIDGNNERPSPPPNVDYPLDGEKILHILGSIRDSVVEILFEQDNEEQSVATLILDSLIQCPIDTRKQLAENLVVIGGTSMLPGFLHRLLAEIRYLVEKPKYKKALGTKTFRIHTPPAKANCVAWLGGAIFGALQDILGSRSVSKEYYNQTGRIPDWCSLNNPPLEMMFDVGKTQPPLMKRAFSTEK
UniProt Q9UJX2, whole entry: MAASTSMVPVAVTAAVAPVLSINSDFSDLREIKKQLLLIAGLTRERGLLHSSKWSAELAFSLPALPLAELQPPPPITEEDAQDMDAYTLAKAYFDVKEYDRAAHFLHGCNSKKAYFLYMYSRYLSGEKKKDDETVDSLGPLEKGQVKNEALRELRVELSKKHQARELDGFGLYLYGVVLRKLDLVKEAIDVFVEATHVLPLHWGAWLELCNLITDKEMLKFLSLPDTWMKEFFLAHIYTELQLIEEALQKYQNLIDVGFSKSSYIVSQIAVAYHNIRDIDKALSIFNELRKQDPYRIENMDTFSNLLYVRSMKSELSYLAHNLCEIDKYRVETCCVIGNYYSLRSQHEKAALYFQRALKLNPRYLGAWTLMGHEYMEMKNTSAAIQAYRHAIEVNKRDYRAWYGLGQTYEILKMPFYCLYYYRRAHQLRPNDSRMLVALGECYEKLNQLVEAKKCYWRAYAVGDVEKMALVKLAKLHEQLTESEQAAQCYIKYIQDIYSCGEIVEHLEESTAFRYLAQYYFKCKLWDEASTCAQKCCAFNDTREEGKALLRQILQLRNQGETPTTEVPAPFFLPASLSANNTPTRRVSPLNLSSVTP
UniProt Q9UKT4: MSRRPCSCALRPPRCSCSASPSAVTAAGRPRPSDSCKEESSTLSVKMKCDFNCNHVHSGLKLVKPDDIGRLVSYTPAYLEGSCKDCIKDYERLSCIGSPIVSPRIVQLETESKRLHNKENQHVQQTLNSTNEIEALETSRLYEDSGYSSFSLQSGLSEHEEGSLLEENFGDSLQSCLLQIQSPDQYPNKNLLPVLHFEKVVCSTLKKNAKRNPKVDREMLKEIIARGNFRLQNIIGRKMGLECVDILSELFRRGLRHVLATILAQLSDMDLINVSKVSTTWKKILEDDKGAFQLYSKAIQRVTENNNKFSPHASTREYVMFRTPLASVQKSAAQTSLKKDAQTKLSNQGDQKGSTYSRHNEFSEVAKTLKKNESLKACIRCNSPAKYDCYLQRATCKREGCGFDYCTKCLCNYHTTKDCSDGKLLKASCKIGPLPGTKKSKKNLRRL
UniProt Q9UI08, whole entry: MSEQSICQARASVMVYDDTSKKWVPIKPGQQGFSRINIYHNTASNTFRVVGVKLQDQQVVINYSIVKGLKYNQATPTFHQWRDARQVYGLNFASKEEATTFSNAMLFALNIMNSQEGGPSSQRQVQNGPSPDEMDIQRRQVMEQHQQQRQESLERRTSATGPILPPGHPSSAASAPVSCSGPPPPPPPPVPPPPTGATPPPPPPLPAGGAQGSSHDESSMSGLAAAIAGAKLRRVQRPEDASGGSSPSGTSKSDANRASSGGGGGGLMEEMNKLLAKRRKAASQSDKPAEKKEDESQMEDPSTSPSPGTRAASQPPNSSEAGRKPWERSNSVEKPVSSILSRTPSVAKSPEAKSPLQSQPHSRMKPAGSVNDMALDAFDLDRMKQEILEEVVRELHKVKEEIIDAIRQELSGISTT

Compound: Nc1nc2c(ncn2[C@@H]2O[C@H](COP(=O)(O)OP(=O)(O)OP(=O)(O)O)[C@@H](O)[C@H]2O)c(=O)[nH]1 [guanosine triphosphate]
Assay: NP40-soluble protein abundance relative to vehicle (solubility fold change) (ratio); higher = more soluble protein in presence of GTP
How it was run: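 Jurkat crude lysate prepared with a Dounce homogeniser was treated at eight concentrations spanning 0.1 to 10 mM, 10 min at room temperature then 3 min at 37 °C. Solubilisation with 0.8% NP40 and benzonase and ultracentrifugation preceded TMT labelling of the supernatant for LC-MS/MS. Fold change against the detergent-processed vehicle was determined per replicate from vsn-normalised intensities, across three independent experiments.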

Target	NP40-soluble protein abundance (concentration: 0.1mM)	NP40-soluble protein abundance (concentration: 0.5mM)	NP40-soluble protein abundance (concentration: 1mM)	NP40-soluble protein abundance (concentration: 2mM)	NP40-soluble protein abundance (concentration: 4mM)	NP40-soluble protein abundance (concentration: 6mM)	NP40-soluble protein abundance (concentration: 8mM)	NP40-soluble protein abundance (concentration: 10mM)
UniProt Q9NZL9 and related entries	1.02 ± 0.049	0.98 ± 0.052	0.959 ± 0.041	0.937 ± 0.041	0.929 ± 0.03	0.918 ± 0.031	0.922 ± 0.051	0.904 ± 0.049
UniProt Q9P2R3 and related entries	1.08 ± 0.019	1.03 ± 0.023	0.958 ± 0.062	0.974 ± 0.062	0.97 ± 0.059	0.954 ± 0.071	0.93 ± 0.046	0.904 ± 0.084
UniProt Q9NUY8 and related entries	1 ± 0.075	0.952 ± 0.052	0.994 ± 0.064	1.1 ± 0.2	0.946 ± 0.071	0.941 ± 0.059	0.958 ± 0.076	0.959 ± 0.091
PFDN2 (UniProt Q9UHV9)	0.943 ± 0.029	0.946 ± 0.0096	1.06 ± 0.043	1.03 ± 0.017	0.996 ± 0.1	1.04 ± 0.057	1.04 ± 0.06	1.17 ± 0.044
UniProt Q9NXH9 and related entries	1.02 ± 0.026	0.954 ± 0.03	0.989 ± 0.088	0.941 ± 0.03	0.963 ± 0.024	0.92 ± 0.018	0.956 ± 0.045	0.932 ± 0.052
UniProt Q9UKV8	1.08 ± 0.065	1.14 ± 0.053	1.06 ± 0.045	1.11 ± 0.053	1.1 ± 0.026	1.07 ± 0.078	1.07 ± 0.057	1.05 ± 0.061
UniProt Q9UJK0	1.03 ± 0.061	1.03 ± 0.025	0.968 ± 0.025	0.892 ± 0.077	0.9682 ± 0.0083	0.969 ± 0.021	0.959 ± 0.024	0.908 ± 0.0051
FAM120C (UniProt Q9NX05)	1 ± 0.021	1.04 ± 0.017	1.04 ± 0.036	1.09 ± 0.065	1.12 ± 0.068	1.18 ± 0.077	1.25 ± 0.08	1.25 ± 0.061
RBM27 (UniProt Q9P2N5)	1.09 ± 0.031	1.24 ± 0.077	1.4 ± 0.1	1.45 ± 0.1	1.54 ± 0.13	1.5 ± 0.089	1.62 ± 0.19	1.6 ± 0.18
UniProt Q9UKV3-3|S4R3H4	0.964 ± 0.039	1.01 ± 0.049	1.14 ± 0.065	1.09 ± 0.03	1.03 ± 0.14	1.03 ± 0.13	1.06 ± 0.19	1.12 ± 0.22
IRAK4 (UniProt Q9NWZ3)	1 ± 0.012	0.983 ± 0.052	0.931 ± 0.03	0.919 ± 0.035	0.898 ± 0.041	0.904 ± 0.033	0.871 ± 0.066	0.862 ± 0.054
FKBPL (UniProt Q9UIM3)	0.917 ± 0.1	0.892 ± 0.15	1.01 ± 0.23	1.02 ± 0.11	0.924 ± 0.24	1 ± 0.13	0.982 ± 0.25	1 ± 0.11
UniProt Q9UGU5 and related entries	0.97 ± 0.092	1.02 ± 0.14	1.05 ± 0.098	1.03 ± 0.13	1.08 ± 0.16	1.19 ± 0.16	1.11 ± 0.16	1.18 ± 0.16
GNL3L (UniProt Q9NVN8)	1.22 ± 0.15	1.18 ± 0.13	1.15 ± 0.1	1.26 ± 0.21	1.33 ± 0.21	1.35 ± 0.27	1.34 ± 0.27	1.29 ± 0.12
UniProt Q9NUP1	0.936 ± 0.15	0.888 ± 0.075	0.985 ± 0.21	0.979 ± 0.18	0.959 ± 0.14	0.939 ± 0.13	0.998 ± 0.016	1.06 ± 0.11
GTSE1 (UniProt Q9NYZ3)	1.06 ± 0.021	1.02 ± 0.033	1.17 ± 0.075	1.12 ± 0.035	1.171 ± 0.0097	1.16 ± 0.049	1.27 ± 0.034	1.29 ± 0.016
NSMCE4A (UniProt Q9NXX6)	1.02 ± 0.014	1.07 ± 0.022	1.01 ± 0.017	1.05 ± 0.034	1.01 ± 0.035	1.03 ± 0.041	1.03 ± 0.012	1.05 ± 0.0099
UniProt Q9UL54-2|Q9UL54 and related entries	1.02 ± 0.16	1.12 ± 0.15	1.07 ± 0.073	1.13 ± 0.094	1.12 ± 0.073	1.08 ± 0.16	1.19 ± 0.14	1.16 ± 0.11
CWC15 (UniProt Q9P013)	0.983 ± 0.034	0.994 ± 0.024	1.06 ± 0.032	1.08 ± 0.018	1.09 ± 0.016	1.14 ± 0.052	1.25 ± 0.022	1.34 ± 0.081
UniProt Q9UIC8 and related entries	0.978 ± 0.059	1.01 ± 0.049	0.88 ± 0.064	0.891 ± 0.058	0.875 ± 0.084	0.885 ± 0.064	0.818 ± 0.067	0.856 ± 0.11
UniProt Q9ULR0 and related entries	0.968 ± 0.081	0.97 ± 0.038	1.09 ± 0.14	1.1 ± 0.11	1.06 ± 0.17	1.06 ± 0.097	1.08 ± 0.17	1.13 ± 0.2
AKAP8L (UniProt Q9ULX6)	0.987 ± 0.024	0.994 ± 0.023	1.02 ± 0.052	1.02 ± 0.056	1.02 ± 0.12	1.02 ± 0.073	1.03 ± 0.059	1.02 ± 0.065
THUMPD1 (UniProt Q9NXG2)	0.874 ± 0.035	0.82 ± 0.067	0.992 ± 0.013	0.98 ± 0.044	0.965 ± 0.045	0.986 ± 0.046	0.922 ± 0.14	0.993 ± 0.039
MBD2 (UniProt Q9UBB5)	0.97 ± 0.01	0.963 ± 0.039	1.15 ± 0.1	1.23 ± 0.12	1.27 ± 0.14	1.28 ± 0.14	1.34 ± 0.15	1.41 ± 0.22
UniProt Q9UKX7-2|Q9UKX7	0.972 ± 0.015	1.04 ± 0.033	1.08 ± 0.042	1.09 ± 0.033	1.09 ± 0.02	1.14 ± 0.034	1.14 ± 0.068	1.16 ± 0.083
ACTR10 (UniProt Q9NZ32)	1.03 ± 0.023	1.07 ± 0.044	1.07 ± 0.028	1.1 ± 0.062	1.1 ± 0.076	1.12 ± 0.077	1.12 ± 0.12	1.08 ± 0.075
ABCF3 (UniProt Q9NUQ8)	1.06 ± 0.08	1.05 ± 0.07	0.971 ± 0.033	0.966 ± 0.025	0.957 ± 0.036	0.934 ± 0.035	0.936 ± 0.051	0.919 ± 0.043
CDC23 (UniProt Q9UJX2)	1.07 ± 0.097	1.11 ± 0.15	1.11 ± 0.18	1.21 ± 0.23	1.2 ± 0.21	1.19 ± 0.22	1.19 ± 0.21	1.17 ± 0.24
UniProt Q9UKT4 and related entries	1.08 ± 0.099	1 ± 0.014	1.13 ± 0.19	1.1 ± 0.11	1.16 ± 0.14	1.12 ± 0.12	1.03 ± 0.052	1.07 ± 0.03
UniProt Q9UI08 and related entries	0.933 ± 0.069	0.943 ± 0.093	0.983 ± 0.11	0.926 ± 0.1	0.917 ± 0.11	0.94 ± 0.1	0.95 ± 0.071	0.965 ± 0.095

2 entries from above, field by field.
UniProt Q9NZL9 and related entries
  NP40-soluble protein abundance (concentration: 0.1mM): 1.02 ± 0.049; NP40-soluble protein abundance (concentration: 0.5mM): 0.98 ± 0.052; NP40-soluble protein abundance (concentration: 1mM): 0.959 ± 0.041; NP40-soluble protein abundance (concentration: 2mM): 0.937 ± 0.041; NP40-soluble protein abundance (concentration: 4mM): 0.929 ± 0.03; NP40-soluble protein abundance (concentration: 6mM): 0.918 ± 0.031; NP40-soluble protein abundance (concentration: 8mM): 0.922 ± 0.051; NP40-soluble protein abundance (concentration: 10mM): 0.904 ± 0.049
NSMCE4A (UniProt Q9NXX6)
  NP40-soluble protein abundance (concentration: 0.1mM): 1.02 ± 0.014; NP40-soluble protein abundance (concentration: 0.5mM): 1.07 ± 0.022; NP40-soluble protein abundance (concentration: 1mM): 1.01 ± 0.017; NP40-soluble protein abundance (concentration: 2mM): 1.05 ± 0.034; NP40-soluble protein abundance (concentration: 4mM): 1.01 ± 0.035; NP40-soluble protein abundance (concentration: 6mM): 1.03 ± 0.041; NP40-soluble protein abundance (concentration: 8mM): 1.03 ± 0.012; NP40-soluble protein abundance (concentration: 10mM): 1.05 ± 0.0099
